Taken from: PubChem BioAssay AID504786 (Drosophila RNAi Screening Center, 2011)
Screen: 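Fly genes required for HIF-dependent transcription when hypoxia is mimicked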 (primary screen). System: Drosophila S2 cells with a stable HIF luciferase reporter. Knock-down reagent: long dsRNA against Drosophila genes, about 0.2 µg dsRNA per well of a 384-well plate. Time to read-out: three days of knock-down, then 20 h of DFO before reading. Challenge: desferrioxamine (DFO) at 100 µM, an iron chelator that mimics hypoxia, for 20 h. Measured: 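Firefly luciferase driven by the mouse ldh-a hypoxia-response element, measured after 20 h of 100 µM DFO; z-scores per plate, higher means more signal lost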. Reading the numbers: z-score: higher = stronger loss of HIF reporter signal.
In all, the deposit lists about 21,000 reagents; below is an unselected part of those that have a named target and a result. 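Primary screen; positive scores mean lost reporter signal, so the sign may be inverted from the usual convention.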 Reagents against one gene are numbered here. A plus sign joins genes that one reagent is predicted to hit.

Gene,reagent no.,"z-score, replicate 1","z-score, replicate 2","z-score, replicate 3","z-score, replicate 4"
DIP-beta (Dpr-interacting protein beta),1,0.6,0.2,,
DIP-beta (Dpr-interacting protein beta),2,-0.4,-0.8,,
DIP-beta (Dpr-interacting protein beta),3,-0.1,-0.2,,
DIP-beta (Dpr-interacting protein beta),4,-0.1,-0.4,,
Ir68a (Ionotropic receptor 68a),1,-0.2,-0.4,,
Klp10A (Kinesin-like protein at 10A),1,-0.3,-0.1,,
Chsy (Chondroitin sulfate synthase),1,-0.5,-0.3,,
Chsy (Chondroitin sulfate synthase),2,-0.3,-0.6,,
NijA (Ninjurin A),1,0.2,0.1,,
Hayan,1,-0.2,-0.6,,
speck,1,-0.3,-0.4,,
GXIVsPLA2,1,-0.4,-0.5,,
CG13285,1,-0.3,0.7,,
CG3407,1,-0.2,-0.5,,
CG1314,1,-0.4,-0.4,,
Spn (Spinophilin),1,-0.3,0,,
Spn (Spinophilin),2,-0.3,-0.3,,
Spn (Spinophilin),3,0.6,0,,
cdi (center divider),1,-0.2,-0.2,,
PPO1 (Prophenoloxidase 1),1,-0.3,-0.3,,
sxc (super sex combs),1,0.3,0,,
TwdlS (TweedleS),1,-0.4,0.4,,
CG16781,1,-0.2,0.5,,
SkpA (SKP1-related A),1,-0.4,-0.6,,
Rtel1 (Regulator of telomere elongation helicase 1),1,-0.3,-0.3,,
Tcs3 (Threonyl-carbamoyl synthesis 3),1,0,-0.4,,
Tsp42En (Tetraspanin 42En),1,-0.3,-0.5,,
Rpp30 (RNaseP protein p30),1,-0.3,0.1,,
ghi (ghiberti),1,-0.4,0.6,,
Pif1 (Pif1 DNA helicase),1,-0.4,-0.3,,
Spt5,1,2.3,3.6,,
Ntf-2 (Nuclear transport factor-2),1,-0.5,-0.8,,
mip120 (Myb-interacting protein 120),1,0.4,0.2,,
YME1L (YME1 like ATPase),1,-0.2,-0.6,,
thoc7,1,-0.3,-0.4,,
CG12056,1,-0.3,-0.2,,
AMPdeam (AMP deaminase),1,-0.5,-0.5,,
AMPdeam (AMP deaminase),2,-0.2,-0.1,,
AMPdeam (AMP deaminase),3,-0.3,-0.3,,
AMPdeam (AMP deaminase),4,0,-0.9,,
CG33679,1,-0.1,-0.2,,
CG13130 (retired record),1,0.3,0.3,,
Argl + CG9515,1,-0.4,-0.6,,
Argl + CG9515,2,-0.3,-0.3,,
CG32971,1,0.1,1.1,,
ru (roughoid),1,-0.2,-0.9,,
CG3916,1,-0.2,0.1,,
Upf2,1,-0.3,-0.2,,
CG13896,1,-0.4,-0.6,,
Fam92,1,-0.2,0,,
CG13461,1,-0.1,0.1,,
Vps35 (Vacuolar protein sorting 35),1,-0.1,0,,
porin,1,-0.4,-0.7,,
CG4073,1,-0.1,-0.5,,
Bfc (Booster for Crq),1,-0.3,0,,
unc-104 (uncoordinated-104),1,-0.3,-0.2,,
AstA-R1 (Allatostatin A receptor 1),1,0.4,-0.1,,
AstA-R1 (Allatostatin A receptor 1),2,0.3,0.2,,
Tengl4 (Testis EndoG-Like 4),1,-0.3,-0.3,,
CG7133,1,-0.3,-0.5,,
CG3065,1,-0.2,-0.6,,
dock (dreadlocks),1,-0.3,-0.5,,
NaPi-III (Na[+]-dependent inorganic phosphate cotransporter type III),1,-0.2,-0.4,,
NaPi-III (Na[+]-dependent inorganic phosphate cotransporter type III),2,0.8,-0.4,,
CG33140,1,-0.3,-0.7,,
yip3 (yippee interacting protein 3),1,-0.5,0,,
CG33235,1,-0.2,-0.5,,
CG13427,1,0,0.2,,
scramb2 (scramblase 2),1,-0.2,0.2,,
fray (frayed),1,-0.3,-0.5,,
Fkbp39 (FK506-binding protein 39kD),1,-0.3,-0.6,,
CG31751,1,-0.1,0.1,,
CG31751,2,-0.2,0.3,,
Cyp6g1 (Cytochrome P450 6g1),1,-0.2,-0.4,,
Txl (Thioredoxin-like),1,-0.2,-0.1,,
CG6729,1,-0.4,-0.6,-0.5,-0.3
cue (cueball),1,-0.3,-0.2,,
dl (dorsal),1,-0.3,-0.4,,
dl (dorsal),2,-0.2,0.2,,
myo (myoglianin),1,-0.2,0,,
CG10918,1,0.6,0.8,,
AttB (Attacin-B),1,-0.3,-0.5,,
CalpB (Calpain-B),1,-0.3,0,,
l(2)05714 (lethal (2) 05714),1,-0.3,-0.4,,
Tim8,1,-0.1,-0.2,,
CG12377 (retired record),1,-0.2,-0.1,,
CG12377 (retired record),2,-0.2,-0.2,,
CG2991,1,-0.2,-0.3,,
Eaf6 (Esa1-associated factor 6),1,-0.3,-1,,
CG12964,1,0,0.3,,
vanin-like,1,-0.2,-0.2,,
RpS14b (Ribosomal protein S14b),1,8.5,4.4,,
Uba3 (Ubiquitin-like activating enzyme 3),1,-0.5,-1.1,,
Erasp (Endoplasmic reticulum stress-associated serine protease),1,-0.1,-0.2,,
Cdk4 (Cyclin-dependent kinase 4),1,-0.1,-0.1,,
CG8321,1,-0.4,-0.9,,
wa-cup (walker cup),1,-0.4,-0.1,,
Slh (SLY-1 homologous),1,-0.5,0.1,,
CG13901,1,-0.2,-0.5,,
CG8750,1,0.2,0.5,,
Swim (Secreted Wg-interacting molecule),1,-0.2,0.1,,
St3 (Sulfotransferase 3),1,-0.3,-0.3,,
gb (genderblind),1,-0.2,0,,
CG15554,1,-0.4,-0.3,,
CG33332,1,-0.3,-0.8,,
CG32846,1,-0.2,-0.2,,

11 entries already listed, ordered by “z-score, replicate 1”, low to high:
Gene,reagent no.,"z-score, replicate 1","z-score, replicate 2","z-score, replicate 3","z-score, replicate 4"
CG6729,1,-0.4,-0.6,-0.5,-0.3
fray (frayed),1,-0.3,-0.5,,
Fkbp39 (FK506-binding protein 39kD),1,-0.3,-0.6,,
cue (cueball),1,-0.3,-0.2,,
CG33235,1,-0.2,-0.5,,
scramb2 (scramblase 2),1,-0.2,0.2,,
CG31751,2,-0.2,0.3,,
Cyp6g1 (Cytochrome P450 6g1),1,-0.2,-0.4,,
Txl (Thioredoxin-like),1,-0.2,-0.1,,
CG31751,1,-0.1,0.1,,
CG13427,1,0,0.2,,
